Hit rate of the full screen: of about 410,000 compounds, about 2,000 (0.49%) were called active. The shares of active, inactive and inconclusive entries below differ from those in the screen. The call rests on the fitted dose curve; tested in HEK293 reporter line. Potencies beside an inconclusive call are fits to weak or partial responses and may not hold up.
Test: qHTS Assay for Foot and Mouth Disease Virus Antivirals: Primary Screen against the MLPCN compound library; further: nearly all actives have a fitted effect of over 55% in size
Conditions: FMDV antiviral cell-based qHTS; activity, negative = inhibition: at 57.9 µM (top of the series)
Potency means the concentration at half of the fitted maximal effect.

| Structure (SMILES) | Potency | activity, negative = inhibition |
| --- | --- | --- |
| O=C(c1cc(-c2ccc(F)cc2)on1)N1CCCC1 | inconclusive: 17.8 µM [inhibitor, single point] |  |
| COC(=O)c1ccccc1NC(=O)CSc1nnnn1-c1ccc(C)cc1C | inconclusive: 31.6 µM [inhibitor, single point] |  |
| COc1cc(C(=O)NCCCNc2ccc([N+](=O)[O-])cc2)cc(OC)c1OC | inconclusive: 7.94 µM [inhibitor, partial curve, poor fit] |  |
| COc1ccc(CNC(=O)c2sc(=O)n(Cc3ccc(-c4ccccc4)cc3)c2C)cc1OC | inconclusive: 15.8 µM [inhibitor, partial curve, poor fit] |  |
| CN(C)c1ccc(N/C=C/C(=O)c2ccco2)cc1 | active: 8.91 µM |  |
| COCCNC(=O)C1CCCN(Cc2ccccc2Cl)CC1 (stereo not drawn) | inconclusive: 8.91 µM [inhibitor, partial curve] |  |
| Cc1ccc(S(=O)(=O)N(C)CC(=O)Nc2ccncc2)cc1 |  | inactive: -36.4% |
| Cc1ccc2nc(-c3ccc(NC(=O)COC(=O)c4ccco4)cc3)sc2c1 | active: 12.6 µM |  |
| O=C(Oc1ccc(=O)n(-c2ccccc2)n1)c1ccccc1 |  | inconclusive: -32.4% [inhibitor] |
| Cc1ccc2c(CC(=O)N3CCN(S(=O)(=O)c4cccs4)CC3)coc2c1 |  | inactive: -31.8% |
| O=C1CCOc2cc(OCc3ccccc3)ccc21 | inconclusive: 39.8 µM [inhibitor, single point] |  |
| COc1ccc(C(=O)Nc2ccc3nc(N4CCC(C)CC4)cc(C)c3c2)cc1 | inconclusive: 31.6 µM [inhibitor, partial curve, poor fit] |  |
| Fc1ccc(NC(=S)NNc2ncc(C(F)(F)F)cc2Cl)c(F)c1 | inconclusive: 10 µM [inhibitor, single point] |  |
| C/C(=N\NC(=O)c1ccc2c(c1)OCO2)c1ccco1 | inconclusive: 15.8 µM [inhibitor, single point] |  |
| Cc1nc2ccc(NC(=O)c3cccc(S(=O)(=O)N4CCOCC4)c3)cc2s1 | inconclusive: 31.6 µM [inhibitor, single point] |  |
| O=c1[nH]c2ccccc2n1C1CCN(C(CCc2ccccc2)c2nnnn2C2CCCCC2)CC1 (stereo not drawn) | inconclusive: 28.2 µM [inhibitor, partial curve, poor fit] |  |
| COc1ccccc1CNc1nc(NCC2CC2)nc2ccsc12 | inconclusive: 25.1 µM [inhibitor, partial curve, poor fit] |  |
| Cc1[nH]c2ccc(C(=O)OC(C)C(=O)N(C)c3ccccc3)cc2c1C (stereo not drawn) | inconclusive: 39.8 µM [inhibitor, single point] |  |

Two of the compounds above, as labelled records:
O=C1CCOc2cc(OCc3ccccc3)ccc21
  Potency: inconclusive: 39.8 µM [inhibitor, single point]
COc1ccc(C(=O)Nc2ccc3nc(N4CCC(C)CC4)cc(C)c3c2)cc1
  Potency: inconclusive: 31.6 µM [inhibitor, partial curve, poor fit]

From PubChem BioAssay AID1347131 (National Center for Advancing Translational Sciences (NCATS), 2019)
